Results on 16 compounds are retold here after the supplement of paper PMC8256030.

SMILES strings stand for the structures. Structures can show the parent of a compound that is named as a salt. This is one part of the list. This data set is noisy: repeats of one test often differ as much as different tests do.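 HEK293T cells were given each compound shortly before transfection with a reporter in which red mCherry is followed by the SARS-CoV-2 frameshift element and then GFP in the −1 frame, so GFP appears only after frameshifting.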

The subject of this experiment is SARS-CoV-2 -1 PRF reporter mCherry-FSE-GFP(-1). Description: mCherry (red) intensity as percent of control; higher = higher upstream reporter expression. The following applies: 10 µM; 24 h; HEK293T.
The compound `Cc1cc(C)cc(OCC2CNC(=O)O2)c1` (stereo unspecified) [metaxalone] displayed a mCherry of 88.8%.
To `CC(C)C[C@H](NC(=O)[C@H](Cc1ccccc1)NC(=O)c1cnccn1)B(O)O` [Bortezomib] belongs 114%; to `OCCOc1ccc(/C(=C(/CCCl)c2ccccc2)c2ccccc2)cc1` [ospemifene], 70%; to `CCC(C)C(CC)C(N)=O` (stereo unspecified) [valnoctamide], 88.8%.
On to `C[C@]12CCC(=O)C=C1CC[C@@H]1[C@@H]2C(=O)C[C@@]2(C)[C@H]1CC[C@]2(O)C(=O)CO` [cortisone], for which the mCherry was 77.7%.
To `CO/N=C(\C(=O)N[C@@H]1C(=O)N2C(C(=O)O)=C(CSC(=O)c3ccco3)CS[C@H]12)c1csc(N)n1` belongs 102%; to `CCC1=C(C)CN(C(=O)NCCc2ccc(S(=O)(=O)NC(=O)N[C@H]3CC[C@H](C)CC3)cc2)C1=O`, 83.3%; to `Cc1ccc2nc(N)[nH]c(=O)c2c1Sc1ccncc1` [nolatrexed], 25.7%.
With `O=C1CC[C@@H](C(=O)O)N1` [pidolic acid], the mCherry amounted to 96.9%.
`C#C[C@]1(O)CC[C@H]2[C@@H]3CCC4=C(CCC(=O)C4)[C@H]3CC[C@@]21C` displayed a mCherry of 84.4%.
To `CCCCOc1ccc(OCCCN2CCOCC2)cc1` [pramocaine] belongs 84.7%.
To `NC12CC3CC(CC(C3)C1)C2` [Amantadine·HCl] belongs 110%.
To `Nc1ccc(S(=O)(=O)Nc2cnc3ccccc3n2)cc1` belongs 109%.
As for `NC(=O)NCCN1CCN(c2cccc(C(F)(F)F)c2)CC1` [fluprazine], the mCherry was found to be 109%.
In turn, `CC(C)(Oc1ccc(Cl)cc1)C(=O)O` [Clofibric acid] gave a mCherry of 72.3%.
`O=[N+]([O-])c1nccn1CC(O)CN1CCCCC1` (stereo unspecified) [pimonidazole] showed a mCherry of 117%.
